Data taken from doi:10.1101/2025.04.24.648904.
No constants are given. Whether binding was seen depends on the method and setting.

Target: T1, Sgt1 (Suppressor of the G2 Allele of Skp1), full length (S. cerevisiae) (UniProt Q08446)
T1 sequence (chain, Atto488 (maleimide) label where it is the labeled species in aUC): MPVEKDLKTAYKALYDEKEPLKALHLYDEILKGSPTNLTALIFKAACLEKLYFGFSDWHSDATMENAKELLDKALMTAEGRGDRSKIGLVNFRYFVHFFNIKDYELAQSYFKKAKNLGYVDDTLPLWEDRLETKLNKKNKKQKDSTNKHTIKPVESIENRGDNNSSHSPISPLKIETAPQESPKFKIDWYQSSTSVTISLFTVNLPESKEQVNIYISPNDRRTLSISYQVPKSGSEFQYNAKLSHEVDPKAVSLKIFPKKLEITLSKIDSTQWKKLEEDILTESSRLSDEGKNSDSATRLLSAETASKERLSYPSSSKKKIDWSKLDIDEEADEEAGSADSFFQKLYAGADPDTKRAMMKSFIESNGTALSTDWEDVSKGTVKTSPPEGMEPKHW
Assay: AUC

Hsp70 (hHsp70)
binding: no binding
